Data on 1 molecule can be found in US20170101469A1 (FOURTH MILITARY MEDICAL UNIVERSITY, published 2017).

No constants are given. Whether binding was seen depends on the method and setting. Some results given as binding are weak or reduced against the parent protein; the word gives no strength.

The assay deals with T1, human CD147 antigen (human, UniProt P35613-2 22-205, limits assumed).
T1 sequence (looked up): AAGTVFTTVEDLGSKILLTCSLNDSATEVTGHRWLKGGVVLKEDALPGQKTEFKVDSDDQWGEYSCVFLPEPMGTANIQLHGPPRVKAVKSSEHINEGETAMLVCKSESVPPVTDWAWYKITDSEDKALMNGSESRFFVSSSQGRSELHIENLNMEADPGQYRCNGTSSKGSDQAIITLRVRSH
Briefly: SPR, ProteOn XPR36, antibody immobilised, CD147 as analyte.

B1: HAb18 (antibody, V domains shown)
VH: EVKLEESGGGLVQPGGSMKLSCVASGFTFSDAWMDWVRQSPEKGLEWVAEIRSKANNHAPYYTESVKGRFTISRDDSKSIIYLQMNNLRAEDTGIYYCTRDSTATHWGQGT
VL: SIVMTQTPTFLVVSAGDRVTITCKASQSVINDVAWYQQKPGQSPKLLIFYASNRNTGVPDRFTGSGYGTDFTFTISTVQAEDLAVYFCQQDYSPPFTFGSGTKLEIKR
notes: Murine monoclonal antibody from hybridoma CGMCC NO; 0426; The variable domains are tied to HAb18 through cHAb18, whose variable domains are 'derived from HAb18'; also called original mouse antibody HAb18; anti-CD147 murine monoclonal antibody HAb18
For B1, the binding entry was “binds”.
